Measured values as given in paper PMC7904156.
These are yes or no findings as the source states them, for the method shown. For part of these data: In cells and extracts the contact can be indirect. Some entries that bind do so weakly or less than the wild type. Where a sequence is shown, tags or fusion partners need not be part of it.

The chains behind the UniProt entries cited, without tags or fusion partners.
UniProt Q9FYA2: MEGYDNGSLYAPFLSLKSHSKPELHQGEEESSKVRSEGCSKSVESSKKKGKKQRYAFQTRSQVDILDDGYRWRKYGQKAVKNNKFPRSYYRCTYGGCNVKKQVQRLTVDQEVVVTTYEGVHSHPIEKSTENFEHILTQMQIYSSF

T1: HA-fused JAZ4 (Arabidopsis thaliana) (UniProt Q58G47)
T1 sequence: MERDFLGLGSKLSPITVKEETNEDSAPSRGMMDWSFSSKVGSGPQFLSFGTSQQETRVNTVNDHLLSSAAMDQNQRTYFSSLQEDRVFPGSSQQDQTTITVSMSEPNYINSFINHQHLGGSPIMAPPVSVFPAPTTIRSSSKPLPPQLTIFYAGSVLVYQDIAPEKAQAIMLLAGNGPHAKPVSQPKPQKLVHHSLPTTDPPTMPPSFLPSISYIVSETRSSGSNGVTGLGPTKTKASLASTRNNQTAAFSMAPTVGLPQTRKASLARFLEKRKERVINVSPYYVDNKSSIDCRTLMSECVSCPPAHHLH

T2: HA-fused JAZ8 (Arabidopsis thaliana) (UniProt Q8LBM2)
T2 sequence: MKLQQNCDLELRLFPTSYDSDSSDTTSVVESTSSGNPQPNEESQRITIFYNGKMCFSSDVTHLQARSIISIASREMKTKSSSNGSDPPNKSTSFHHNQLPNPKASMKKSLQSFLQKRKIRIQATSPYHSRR

B1: JAZ8 fused to the N-terminal portion of YFP (JAZ8-nYFP) (protein, UniProt Q8LBM2 1-131)
chain: T2 sequence
B2: JAZ4 fused to the N-terminal portion of YFP (JAZ4-nYFP) (protein, UniProt Q58G47 1-310)
chain: T1 sequence
B3: JAZ8, full length, fused to the AD domain of pGADT7 (protein, UniProt Q8LBM2 1-131)
chain: T2 sequence
B4: JAZ4 (yeast two-hybrid prey) (protein, UniProt Q58G47 1-310)
chain: T1 sequence
B5: JAZ7 (yeast two-hybrid prey) (protein, UniProt O64687 1-148)
chain: MIIIIKNCDKPLLNFKEMEMQTKCDLELRLLTSSYDSDFHSSLDESSSSEISQPKQESQILTIFYNGHMCVSSDLTHLEANAILSLASRDVEEKSLSLRSSDGSDPPTIPNNSTRFHYQKASMKRSLHSFLQKRSLRIQATSPYHRYR
B6: JAZ9 (yeast two-hybrid prey) (protein, UniProt Q8W4J8 1-267)
chain: MERDFLGLSDKQYLSNNVKHEVNDDAVEERGLSTKAAREWGKSKVFATSSFMPSSDFQEAKAFPGAYQWGSVSAANVFRRCQFGGAFQNATPLLLGGSVPLPTHPSLVPRVASSGSSPQLTIFYGGTISVFNDISPDKAQAIMLCAGNGLKGETGDSKPVREAERMYGKQIHNTAATSSSSATHTDNFSRCRDTPVAATNAMSMIESFNAAPRNMIPSVPQARKASLARFLEKRKERLMSAMPYKKMLLDLSTGESSGMNYSSTSPT
B7: the 83 N-terminal residues of JAZ8 (containing the ZIM domain), fused to the AD domain of pGADT7 (domain or fragment, UniProt Q8LBM2 1-83)
chain: MKLQQNCDLELRLFPTSYDSDSSDTTSVVESTSSGNPQPNEESQRITIFYNGKMCFSSDVTHLQARSIISIASREMKTKSSSN

Key:
[1] = molecular target: T1, HA-fused JAZ4 (Arabidopsis thaliana); assay: co-IP; Myc-WRKY75 and HA-JAZ co-expressed 48 h in N. benthamiana (tobacco) leaves; protein extracts, anti-HA antibody and A/G-agarose beads, blot with anti-Myc
[2] = molecular target: T2, HA-fused JAZ8 (Arabidopsis thaliana); assay: as above
[3] = molecular target: WRKY75 fused to the C-terminal portion of YFP (WRKY75-cYFP) (Arabidopsis thaliana) (UniProt Q9FYA2); assay: split reporter; BiFC: JAZ-nYFP and WRKY75-cYFP co-infiltrated into N. benthamiana leaves by Agrobacterium; YFP read by confocal microscopy 48 h after infiltration
[4] = molecular target: WRKY75 fused to the Gal4 DNA binding domain (BD-WRKY75) (Arabidopsis thaliana) (UniProt Q9FYA2); assay: two-hybrid; directed test: bait (pGBKT7) and prey (pGADT7) vectors co-transformed into yeast; growth on synthetic dropout medium lacking Leu, Trp, His and Ade

Molecule | binding [4] | other results
Myc-fused WRKY75 (from UniProt Q9FYA2 1-145) | – | binding [1]: binds; binding [2]: binds
B1 | – | binding [3]: binds
B2 | – | binding [3]: binds
B3 | binds | –
B4 | binds weakly | –
B5 | binds weakly | –
B6 | binds weakly | –
B7 | binds | –
